Some targets named below: ZNF416 (Homo sapiens) (UniProt Q9BWM5); ZNF114 (Homo sapiens) (UniProt Q8NC26); HOXA5 (Homo sapiens) (UniProt P20719); E2F3 (Homo sapiens) (UniProt O00716).
Test in all cases: protein microarray
Holding throughout (settings): 10-fold cold unmethylated competitor; 5mC at CpG (SssI, both strands); recombinant protein; protein details: GST (N-terminal); label: Cy5

The chains behind the UniProt entries cited, without tags or fusion partners. Where a name states a change or a piece, a line headed by the entry shows the natural chain unless it says otherwise.
UniProt Q9BWM5: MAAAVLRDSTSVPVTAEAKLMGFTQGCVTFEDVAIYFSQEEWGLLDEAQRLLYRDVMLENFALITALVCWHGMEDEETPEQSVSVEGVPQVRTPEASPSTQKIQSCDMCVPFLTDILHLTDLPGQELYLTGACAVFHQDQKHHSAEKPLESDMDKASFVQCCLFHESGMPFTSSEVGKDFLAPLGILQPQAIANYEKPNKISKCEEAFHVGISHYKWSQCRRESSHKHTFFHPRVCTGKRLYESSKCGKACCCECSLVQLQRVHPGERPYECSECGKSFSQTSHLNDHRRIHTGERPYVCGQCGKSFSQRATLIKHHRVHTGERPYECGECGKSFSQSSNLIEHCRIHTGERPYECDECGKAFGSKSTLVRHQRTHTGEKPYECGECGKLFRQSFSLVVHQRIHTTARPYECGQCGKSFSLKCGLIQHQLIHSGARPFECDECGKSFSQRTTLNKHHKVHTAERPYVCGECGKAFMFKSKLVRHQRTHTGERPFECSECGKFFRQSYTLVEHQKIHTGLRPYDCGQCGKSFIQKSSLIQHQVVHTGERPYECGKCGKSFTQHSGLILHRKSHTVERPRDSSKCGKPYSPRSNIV
UniProt Q8NC26: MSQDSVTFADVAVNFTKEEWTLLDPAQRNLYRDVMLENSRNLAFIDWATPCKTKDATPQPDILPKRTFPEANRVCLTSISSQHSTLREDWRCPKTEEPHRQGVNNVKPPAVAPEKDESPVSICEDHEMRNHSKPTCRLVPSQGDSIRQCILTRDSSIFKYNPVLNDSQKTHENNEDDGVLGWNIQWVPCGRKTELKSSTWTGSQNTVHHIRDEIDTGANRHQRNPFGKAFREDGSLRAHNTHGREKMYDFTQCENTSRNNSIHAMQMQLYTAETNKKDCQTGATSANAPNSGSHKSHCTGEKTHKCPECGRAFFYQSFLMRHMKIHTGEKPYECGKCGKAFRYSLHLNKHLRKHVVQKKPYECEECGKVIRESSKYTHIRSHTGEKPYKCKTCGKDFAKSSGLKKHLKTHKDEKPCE
UniProt P20719: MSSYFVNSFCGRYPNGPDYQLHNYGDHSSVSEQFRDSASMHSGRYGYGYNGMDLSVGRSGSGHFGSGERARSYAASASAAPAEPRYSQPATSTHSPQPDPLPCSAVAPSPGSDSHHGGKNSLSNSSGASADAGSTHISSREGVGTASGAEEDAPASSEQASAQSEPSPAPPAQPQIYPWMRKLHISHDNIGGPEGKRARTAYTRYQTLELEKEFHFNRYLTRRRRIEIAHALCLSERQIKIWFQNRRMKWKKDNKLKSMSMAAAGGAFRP
UniProt O00716: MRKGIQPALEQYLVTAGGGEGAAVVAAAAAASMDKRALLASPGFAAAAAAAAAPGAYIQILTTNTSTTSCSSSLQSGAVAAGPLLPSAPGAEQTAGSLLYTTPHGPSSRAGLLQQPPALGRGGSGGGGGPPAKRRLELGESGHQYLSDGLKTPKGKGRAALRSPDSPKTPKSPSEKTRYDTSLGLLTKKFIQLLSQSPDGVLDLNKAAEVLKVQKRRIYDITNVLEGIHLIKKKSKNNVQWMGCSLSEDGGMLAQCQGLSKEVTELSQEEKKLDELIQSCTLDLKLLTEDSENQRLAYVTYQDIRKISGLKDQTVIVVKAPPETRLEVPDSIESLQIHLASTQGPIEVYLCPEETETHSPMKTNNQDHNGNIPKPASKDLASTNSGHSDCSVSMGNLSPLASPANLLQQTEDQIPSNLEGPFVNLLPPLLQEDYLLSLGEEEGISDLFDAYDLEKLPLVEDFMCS

The exact form of at least one protein or probe is not confirmed.

For the sequence “TCTCGCGAGAAAATCTCGCGAGACCCTATAGTGAGTGCTATTA (double strand) [M199]”, the binding result with ZNF416 (Homo sapiens) is given as “binds”.

With “ACGCGGCTTTACGCGGCCCCTATAGTGAGTGCTATTA (double strand) [M314]”, the binding result with ZNF114 (Homo sapiens) and in the series with HOXA5 (Homo sapiens) was “binds” throughout.

On to “GCGCTTGCGCATGCGAAAGCGCTTGCGCATGCGCCCTATAGTGAGTGCTATTA (double strand) [M48]”, for which the binding result with ZNF114 (Homo sapiens), with ZNF416 (Homo sapiens) and with HOXA5 (Homo sapiens) was “binds” each time.

On to “AGGCGCGTTTAGGCGCGCCCTATAGTGAGTGCTATTA (double strand) [M296]”, for which the binding result in the series with ZNF114 (Homo sapiens) was “binds”.

On to “TGCGCAACAAAATGCGCAACACCCTATAGTGAGTGCTATTA (double strand) [M284]”, for which the binding result with ZNF114 (Homo sapiens) was “binds”.

Regarding “AGGACGATAAAAGGACGATCCCTATAGTGAGTGCTATTA (double strand) [M429]”, the binding result in the series with ZNF114 (Homo sapiens), in the series with ZNF416 (Homo sapiens) and with HOXA5 (Homo sapiens) was “binds” each time.

As to “GCTTTTACGGGGGCTTTTACGCCCTATAGTGAGTGCTATTA (double strand) [M412]”, the binding result in the series with ZNF114 (Homo sapiens), with ZNF416 (Homo sapiens) and in the series with HOXA5 (Homo sapiens) was “binds” throughout.

With “CCGAAGACGAAACCGAAGACGCCCTATAGTGAGTGCTATTA (double strand) [M263]”, the binding result with ZNF416 (Homo sapiens) and with E2F3 (Homo sapiens) was “binds” each time.

With “CGCATAAACCCCGCATAAACCCTATAGTGAGTGCTATTA (double strand) [M460]”, the binding result with ZNF114 (Homo sapiens), with ZNF416 (Homo sapiens) and with HOXA5 (Homo sapiens) was “binds” each time.

“AACTCCCATTAGCGTTAATGGCCCAACTCCCATTAGCGTTAATGGCCCTATAGTGAGTGCTATTA (double strand) [M134]”: the binding result in the series with ZNF416 (Homo sapiens), in the series with HOXA5 (Homo sapiens) and with E2F3 (Homo sapiens) was “binds” in each case.

On to “CGCGCACAAACGCGCACCCCTATAGTGAGTGCTATTA (double strand) [M75]”, for which the binding result in the series with ZNF114 (Homo sapiens) and with HOXA5 (Homo sapiens) was “binds” throughout.

Source of the values: PMC3762332.
